Measured data: PubChem BioAssay AID1259254 (NCATS, 2017)

- Purpose: 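Gene knock-downs that lead to re-replication, shown by excess G2 DNA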 (primary screen)
- Cells: human HCT116 colorectal cancer cells
- Knock-down reagent: single siRNA against human genes
- Timing: 3 days
- Measured: 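Imaged Hoechst DNA stain sorts each cell into a cycle phase by DNA amount; per plate, G2 fraction set to 0% for non-targeting and 100% for GMNN siRNA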
- Reading the numbers: G2 robust z-score and G2 cells, % of GMNN control: higher = more G2 cells, more excess DNA replication
- Call rule: 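Active siRNAs have a G2 robust z of 5 or more median absolute deviations over the median, which in these data means about 38% or higher of GMNN control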
Shown is an unselected part of about 59,000 reagents tested. About 1,550 of all reagents (2.6%) count as active. 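G2 share is only a proxy for re-replication; each gene was hit by three separate siRNAs, and active genes were retested.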 Reagents against one gene are numbered here. Not all columns of the deposit are shown. The record does not give: the amount of reagent.

With TPPP #1, how do the results read?
G2 robust z-score: 0.628; G2 cells, % of GMNN control: 7.39; Call: inactive

With TPPP #2, what was measured?
G2 robust z-score: -1.51; G2 cells, % of GMNN control: -7.62; Call: inactive

What did the screen give for TPPP #3?
G2 robust z-score: -0.76; G2 cells, % of GMNN control: -2.38; Call: inactive

What did the screen give for PLEKHM2 #1?
G2 robust z-score: 0.757; G2 cells, % of GMNN control: 8.29; Call: inactive

With PLEKHM2 #2, how do the results read?
G2 robust z-score: -0.868; G2 cells, % of GMNN control: -3.14; Call: inactive

For PLEKHM2 #3, what does the deposit list?
G2 robust z-score: 2.52; G2 cells, % of GMNN control: 20.7; Call: inactive

For RCOR1 #1, how do the results read?
G2 robust z-score: 6.49; G2 cells, % of GMNN control: 48.7; Call: active

What did the screen give for RCOR1 #2?
G2 robust z-score: -0.995; G2 cells, % of GMNN control: -4.03; Call: inactive

Which result is listed for RCOR1 #3?
G2 robust z-score: 1.71; G2 cells, % of GMNN control: 15; Call: inactive

Which result is listed for CAPRIN2 #1?
G2 robust z-score: -1; G2 cells, % of GMNN control: -4.09; Call: inactive

For CAPRIN2 #2, what was measured?
G2 robust z-score: -0.722; G2 cells, % of GMNN control: -2.11; Call: inactive

With CAPRIN2 #3, what was measured?
G2 robust z-score: 0.185; G2 cells, % of GMNN control: 4.27; Call: inactive

With PGBD4 #1, how do the results read?
G2 robust z-score: -0.584; G2 cells, % of GMNN control: -1.14; Call: inactive

How did the screen score PGBD4 #2?
G2 robust z-score: -0.603; G2 cells, % of GMNN control: -1.27; Call: inactive

How did the screen score PGBD4 #3?
G2 robust z-score: 0.304; G2 cells, % of GMNN control: 5.1; Call: inactive

What did the screen give for AP4B1 #1?
G2 robust z-score: -0.392; G2 cells, % of GMNN control: 0.208; Call: inactive

Which result is listed for AP4B1 #2?
G2 robust z-score: -0.149; G2 cells, % of GMNN control: 1.92; Call: inactive

What did the screen give for AP4B1 #3?
G2 robust z-score: 0.365; G2 cells, % of GMNN control: 5.54; Call: inactive

For DFFA #1, what does the deposit list?
G2 robust z-score: 0.298; G2 cells, % of GMNN control: 5.07; Call: inactive

How did the screen score DFFA #2?
G2 robust z-score: 0.27; G2 cells, % of GMNN control: 4.87; Call: inactive

With DFFA #3, how do the results read?
G2 robust z-score: 0.159; G2 cells, % of GMNN control: 4.09; Call: inactive

What is on record for OR5T3 #1?
G2 robust z-score: -0.0484; G2 cells, % of GMNN control: 2.63; Call: inactive

For OR5T3 #2, what was measured?
G2 robust z-score: 0.323; G2 cells, % of GMNN control: 5.24; Call: inactive

With OR5T3 #3, what was measured?
G2 robust z-score: -0.805; G2 cells, % of GMNN control: -2.69; Call: inactive

A few values from the list:
PGBD4 #2, G2 robust z-score → -0.603
TPPP #3, Call: inactive
For “G2 robust z-score”, DFFA #3 is entered as 0.159
